Source: article PMC6795473
Results are given in words; binding and its absence hold for the method and conditions named. Binding seen in cells or lysates may run through a third protein. Here binding means that the protein was enriched with, or labelled near, the bait; the list need not be complete. Sequences can lack the tags named with a protein.

B1: IMC6 (endogenous alveolin, untagged) (protein, UniProt S8F8Q1 1-444)
chain: MAQTAPNQSAPTSGFSPMASMGSFAVPSAPPSPLFPTPAAFPGAAPQSQTVPGVATMGSVAGSEVTPFPMYNWHQNRVPVNSGGFFGQCCGPAQVGSDSSSETYDRSYEENMWRWTRDGKLQLRCGQPVVPVPVIQEIHRRDKIIEVPQVDVVDAVRPKVYNQGVEHEVPVMQINADHEDFDVEQIKYVEKEVVVPIVTGFTHKFVAKWDIREVPRPVVKYVGKQEEIEVEVPQVKFVDKVVEHEVVVDTIEKKVPKIIEVPKYVDEVKYVWTPVEKIVHVERFVPVFDVSLECPAPLIVPYPMQAVKEMPAVMVRKEVPEAAITEQGFDIVSPPGTLRVSDEYVRAHHQFAEENAALCGAGTACGAPQKEPEIEFRTANQMKEARAAAQEGHLERGGSFVSQVGTESQVPRPAATDEQAEGSADAGDKQGSRGSSFNSEGEVH
B2: GAP45 (endogenous glideosome-associated protein) (protein, UniProt Q7Z289 1-245)
chain: MGNACKKNTAKTPTRKEAEDLAEKERQEREAKEKAEAEEKARAEAEKNAADKAEAERRAAEAREREESARKEAEAEAARKAEAEAAEAERLRKEAEKKKAEEAKRKAEEEQRAAAEEAEQRAREEAERRKAEAAAAAERERQMQEALKQEEMSPREKYDKLASPEDSASETTMATQPQKVAEHSSAAVTDRSVVGYTVTPCDMAAIDETAKYLSKRCGCDLGDQHDENECPICRHIDLSDAPLLN

Biological target: IMC localizing protein 1 (ILP1) with C-terminal 3xHA, wild type (T. gondii)
Assay: affinity purification with mass spectrometry; traditional anti-HA co-IP of ILP1-3xHA after fractionation in 1% Triton X-100 and extensive sonication of the pellet; a gel slice with a unique band analysed by mass spectrometry; RH parasites as control

| Binder | binding |
| --- | --- |
| B1 | binds |
| B2 | binds |
